Record: PubChem BioAssay AID720505 (Drosophila RNAi Screening Center, 2013)
Screen: 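Fly regulators or components of the CRAC channel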 (primary screen). Cells: Drosophila S2R+ cells. Knock-down reagent: long dsRNA against Drosophila genes. Challenge: thapsigargin (2 µM) in calcium-free buffer to empty internal stores, then 2 mM calcium added back. Measured: 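Stores emptied by 2 µM thapsigargin without calcium, then 2 mM calcium re-added; fluo-4 fluorescence followed by FLIPR in 384-well plates, per-well averaged endpoint, raw; two screen passes, some wells retested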. Scale: calcium signal and retest calcium signal: higher = more calcium entry after store depletion. Call rule: 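Knock-downs counted as hits when calcium entry dropped relative to STIM1 positive and Rho1 negative controls present on each plate; roughly 1500 genes called, with reductions of differing size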. Calls: active = called as lowering calcium entry; inactive = not called.
The screen tested about 20,000 reagents; this is an unselected part of those that have a named target and a result. In the full data, about 2,100 (10%) got an active call. 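Raw plate signals without normalisation; calls rest on control-based scores that were not deposited; replicate 2 separates called from uncalled poorly.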 The record does not give: the amount of reagent, the time to read-out.

gene	amplicon	calcium signal, replicate 1	calcium signal, replicate 2	retest calcium signal, replicate 1	retest calcium signal, replicate 2	activity call
Inos	DRSC07655	152	135			inactive
tj	DRSC02011	71.7	158			inactive
Kap3	DRSC19426	127	98.1			inactive
Cpr67Fa1	DRSC10932	86	129			inactive
CG12325	DRSC06130	183	103			inactive
CG17544	DRSC02624	103	120			inactive
Socs44A	DRSC06828	152	104			inactive
IntS4	DRSC17810	114	94.3			inactive
CG5418	DRSC02857	120	167			inactive
Arl4	DRSC17156	121	165			inactive
CG16772	DRSC02516	103	109			inactive
Pgd	DRSC18697	160	92.4			inactive
Agps	DRSC05984	117	181			inactive
hec	DRSC19895	135	115			inactive
CG18585	DRSC02678	148	315			inactive
CG13215	DRSC06337	90.1	99.9			inactive
mRpS30	DRSC20107	111	107			inactive
CG32533	DRSC19443	197	143			inactive
CG32533	DRSC19553	191	115			inactive
CG12912	DRSC06227	59	90.6			active
Abd-B	DRSC14098	140	167			inactive
Abd-B	DRSC14337	133	182			inactive
rempA	DRSC00327	84.4	113			inactive
HLH3B	DRSC18669	91.5	127			inactive
Tango11	DRSC03890	2406	97.1			active
Tango11	DRSC03892	79	4981			inactive
P5CDh1	DRSC11801	126	114			inactive
LS2	DRSC04340	103	115			inactive
Gpdh3	DRSC15325	183	133			inactive
Pka-R1	DRSC11674	147	85.7			inactive
Pka-R1	DRSC11875	124	126			inactive
TpnC73F	DRSC11307	61.7	106			inactive
ogre	DRSC18809	136	105			inactive
DCP1	DRSC04091	138	135			inactive
SmD2	DRSC12536	105	102			inactive
ImpE2	DRSC08665	96.4	87.3			inactive
Sry-delta	DRSC16869	101	117			inactive
CG9578	DRSC20694	155	141			inactive
CG13126	DRSC02222	190	161			inactive
Drak	DRSC19778	70.2	100			inactive
Drak	DRSC23298	155	204			inactive
CG4408	DRSC15574	195	324			inactive
Exo70	DRSC10774	71.3	77.5			inactive
Nplp3	DRSC09944	76.2	139			inactive
CG5004	DRSC19929	89.3	122			inactive
CG5004	DRSC19930	62.8	147			active
CG5004	DRSC20123	89.5	136			inactive
Cln3	DRSC10520	136	180			inactive
Pep	DRSC11252	103	98			inactive
Cog6	DRSC06806	199	124			inactive
Arl6	DRSC07031	155	191			inactive
CG4744	DRSC06887	157	129			inactive
CG11474	DRSC04112	93.7	123			inactive
Ranbp16	DRSC20160	90.7	143			inactive
CG14627	DRSC18630	89.4	105			inactive
nSyb	DRSC08727	125	136			inactive
nSyb	DRSC22961	115	128			inactive
hwt	DRSC19386	99	159			inactive
hwt	DRSC19695	106	86.8			inactive
mRpS25	DRSC19598	60.2	146			active
CG6425	DRSC16038	132	139			inactive
obst-B	DRSC01987	109	99.2			inactive
CG18249	DRSC15318	119	94.5			inactive
bgcn	DRSC04062	94.9	195			inactive
bgcn	DRSC04063	139	207			inactive
CG1607	DRSC15130	57.7	83.6			active
Pex10	DRSC08599	126	89.1	167	166	inactive
Pex10	DRSC22021	76.8	201			inactive
path	DRSC10361	86.6	47.3			active
eag	DRSC19067	68.9	106			inactive
eag	DRSC20328	75.8	131			inactive
Fdx1	DRSC11167	77.2	93.1			inactive
DIP-eta	DRSC02342	130	130			inactive
Cyp9f3	DRSC16636	163	79.6			inactive
NKAIN	DRSC04531	115	102			inactive
NKAIN	DRSC22470	121	206			inactive
CG15429	DRSC00444	65.3	101			active
CG42542	DRSC15549	148	137			inactive
CG42542	DRSC22264	79.8	151			inactive
Ser6	DRSC20574	180	86.5			inactive
Acbp4	DRSC11023	92.6	71.2			inactive
ScsbetaA	DRSC14446	96.5	135			inactive
udd	DRSC06720	128	112			inactive

Active calls, of those listed so far:
gene	amplicon	calcium signal, replicate 1	calcium signal, replicate 2	retest calcium signal, replicate 1	retest calcium signal, replicate 2	activity call
CG12912	DRSC06227	59	90.6			active
Tango11	DRSC03890	2406	97.1			active
CG5004	DRSC19930	62.8	147			active
mRpS25	DRSC19598	60.2	146			active
CG1607	DRSC15130	57.7	83.6			active
path	DRSC10361	86.6	47.3			active
CG15429	DRSC00444	65.3	101			active
